The source of these data is publication PMC11234452, “HydrogelFinder: A Foundation Model for Efficient Self‐Assembling Peptide Discovery Guided by Non‐Peptidal Small Molecules” (Advanced Science, 2024).

The subject of data set [1] is human dermal fibroblasts (NHDF). Conditions: NHDF cells, MTT, 0.1–500 µM peptide, 24 h (legend; method says 48 h), n = 3.
Data set [2] relates to stem cells from human exfoliated deciduous teeth (SHED). Conditions: MTT, 0.1–500 µM peptide, 24 h (legend; method says 48 h), n = 3.
The test system of another data set is SHED cells. Conditions: SHED cells grown on the surface of hydrogel (1.0 wt%) for 24 h; calcein AM / PI staining.
Data set [3] can be described thus: Hydrogelation test, inverted tube method. Conditions: buffer 1X PBS, 37 °C overnight. Type of data set: physicochemical. The procedure: We subsequently evaluated their gelation capability (Figure S2, Supporting Information). After purification by HPLC, the obtained compounds were dissolved in water and the pH of the solution was adjusted to trigger self‐assembly and hydrogelation.
Observing gel behavior in an inverted test tube is a rapid and facile approach to determine whether a dissolved peptide formed a gel.
All compounds were placed in a glass tube (diameter 10 mm) and first dissolved in D.I water, sonicated for 5 min and putted on ice for 30 min. Then added 2x PBS buffer (5.4 mM KCl, 20 mM Na2HPO4, 4 mM KH2PO4) or D.I water to reach the final concentration of 1.0 wt%. pH was adjusted with NaOH or HCl. The solutions were stored in 37 °C incubator overnight. Gelation was confirmed by the inverting method.

A short description of data set [4]: Oscillatory rheology, dynamic time sweep. Type of data set: physicochemical. Conditions: 37 °C, 15 mm parallel geometry, gap 0.5 mm, G′ consistently higher than G″. The procedure:
To further explore the gelation properties and self‐assembly behavior of the candidate self‐assembling molecules, we carried out a series of biophysical characterization experiments.
All rheological experiments were performed on an Anton Parr equipped with a steel 15 mm parallel geometry tool. […] To avoid dehydration, a layer of silicon oil was applied around the edge of the sample at the start of the measurement. Dynamic strain sweep experiments were performed to ensure that the time‐sweep data was collected in the linear regime of strain. The dynamic strain sweep was performed varying the strain from 0.1 to 100% at a constant frequency (6 rad s^−1).

Data set [5] can be described thus: TEM of hydrogel matrix, nanofiber width. Conditions: uranyl formate stain, ImageJ, 30 measurements per picture. Type of data set: physicochemical. The procedure:
These nanofibers were entangled with one another, forming a 3D‐network that comprised the hydrogel matrix (Figure 4B).
The sample was prepared by placing a drop of peptide solution on a 200‐mesh copper grid (Electron Microscopy China) and allowed to stand for 1.0 min, then blotted with filter paper. Subsequently a drop of 1.0% Uranyl Formate was placed on the grid and allowed to stand for 1–2 min, then blotted with a piece of filter paper and left to air dry. Images were taken with a JEOL JEM‐2100Plus at 80 kV accelerating voltage. By calculating the width of peptide, The image J was used to measure 30 times for 1 TEM picture, and to gather statistics with frequency.^[ [26] ^]

Usually IC50 stands for the concentration needed to halve the response being measured. Higher therefore signals lower potency. `NC(=O)[C@H](Cc1ccccc1)NC(=O)[C@H](CC(=O)O)NC(=O)CNC(=O)[C@H](CCC(=O)O)NC(=O)[C@H](Cc1ccccc1)NC(=O)[C@H](CCC(=O)O)NC(=O)[C@@H](N)Cc1c[nH]c2ccccc12` [compound 16]: the IC50 in data set [1] and in data set [2] was greater than 500 µM in each case. The “biocompatibility in live/dead assay” value with SHED cells is recorded as “high biocompatibility”.
In the case of `CC(C)C[C@H](NC(=O)[C@H](CC(C)C)NC(=O)[C@H](CCCCN)NC(=O)[C@H](CC(C)C)NC(=O)[C@H](CCCNC(=N)N)NC(=O)[C@H](CC(C)C)NC(=O)[C@H](CCCNC(=N)N)NC(=O)[C@@H](N)C(C)C)C(=O)O` [compound 62], the “pH (of hydrogelation)” value in data set [3] was 8.0. Moreover, in data set [3] (pH adjusted with NaOH or HCl), the “Conc. (hydrogelation concentration)” value is listed as 1.0 wt%. Also, the “storage modulus (G′) at equilibrium” value in data set [4] is given as 2,143 Pa. The nanofiber width result in data set [5] is listed as “approximately 14 nm”. The IC50 in data set [1] and in data set [2] was greater than 500 µM throughout. Further, in the data set on SHED cells, the “biocompatibility in live/dead assay” value is on record as “high biocompatibility”.
